Earlier results in patent US20070249695A1, “Preventive and/or Therapeutic Agents for Meniere's Disease” (priority 2004, published 2007).
For at least one compound, name, drawing or mass did not settle the structure.

Test system: Meniere's disease
Settings: Jibi Rinshoh vol. 83(12), pp. 1873-1883 (1990); cited from earlier work

## CC(C)C(=O)c1c(C(C)C)nn2ccccc12 [ibudilast]
  effect on symptoms manifested by Meniere's disease: ameliorate various symptoms manifested by Meniere's disease
